In all, about 580,000 compounds went through this assay and about 6,100 (1.1%) were called active. The shares of active, inactive and inconclusive entries below differ from those in the screen. Calls follow the shape of the dose curve; as a rule, active = well fitted inhibition curve with a large enough effect; inconclusive = small, poorly fitted or top-dose-only effect, or another doubt; inactive = no such curve, though single readings can be large or run the other way. A potency beside an inconclusive call is a rough fit, not a confirmed value.
The compounds below were run against Polyunsaturated fatty acid lipoxygenase ALOX12 (Homo sapiens) (UniProt P18054) (assay: Primary qHTS assay for inhibitors of human arachidonate 12S-lipoxygenase (ALOX12): Round 2). Conditions: purified 12hLO, xylenol orange hydroperoxide absorbance; activity change, negative = inhibition: at 108 µM (top of the series) unless noted.
Procedure, shortened: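 Hydroperoxide product was detected by ferrous iron/xylenol orange as the 573 to 405 nm absorbance ratio. Arachidonic acid at 40 uM (final) was turned over for 30 min at room temperature by 150 nM human 12hLO, pH 7.0 Hepes buffer, after 15 min compound preincubation.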
% is scaled to controls: 0 for no effect and ±100 for the full control effect; potency is read from the fitted curve at half-maximal effect.

The chains behind the UniProt entries cited, without tags or fusion partners.
UniProt P18054, whole entry, looked up: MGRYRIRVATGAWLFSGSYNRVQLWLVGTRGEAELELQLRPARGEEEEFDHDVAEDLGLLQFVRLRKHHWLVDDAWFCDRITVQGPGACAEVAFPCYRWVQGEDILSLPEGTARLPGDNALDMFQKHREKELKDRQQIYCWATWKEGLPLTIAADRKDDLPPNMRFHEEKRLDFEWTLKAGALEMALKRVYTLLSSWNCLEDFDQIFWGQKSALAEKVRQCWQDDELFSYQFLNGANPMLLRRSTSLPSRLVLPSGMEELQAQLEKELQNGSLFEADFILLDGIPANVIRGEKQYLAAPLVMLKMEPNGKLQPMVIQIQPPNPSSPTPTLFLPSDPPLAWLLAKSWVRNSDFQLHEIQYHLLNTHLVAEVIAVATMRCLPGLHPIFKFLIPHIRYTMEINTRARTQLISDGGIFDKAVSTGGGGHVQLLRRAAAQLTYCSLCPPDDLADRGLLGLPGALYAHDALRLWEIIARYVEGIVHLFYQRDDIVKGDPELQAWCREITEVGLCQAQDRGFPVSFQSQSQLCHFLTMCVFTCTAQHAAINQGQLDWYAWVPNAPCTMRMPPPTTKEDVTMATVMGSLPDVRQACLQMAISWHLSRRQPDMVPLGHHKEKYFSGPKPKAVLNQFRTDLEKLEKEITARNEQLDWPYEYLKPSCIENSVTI

Row | SMILES | Potency | activity change, negative = inhibition
1 | CCOc1ccc(N(CC(=O)NCCSCc2ccccc2)S(C)(=O)=O)cc1 | inactive | –
2 | C[N+]1(Cc2ccccc2F)CCN(/C=C/C(=O)C(F)(F)F)CC1 | inactive | –
3 | C=CCNC(=S)N/N=C1/CCC=C1CCCCC | active: 35.5 µM | –
4 | COC(=O)[C@@]1(Cc2ccc(OC)cc2)[C@H]2c3cc(C(=O)N(C)C)n(Cc4c(CO)[nH]cc(C)c4=O)c3C[C@H]2CN1C(=O)c1ccccc1 | inconclusive: 50.1 µM [inhibitor, partial curve, poor fit] | –
5 | CC(CN1CCOCC1)OC(=O)c1cccc(Br)c1 (stereo not given) | inconclusive: 31.6 µM [inhibitor, partial curve, poor fit] | –
6 | CC(=O)c1ccc(N2CCN(S(=O)(=O)c3ccc(-c4cc(C)[nH]n4)s3)CC2)cc1 | inactive | –
7 | Cc1ccc(NC(=O)CN(C)C(=O)CCNS(=O)(=O)c2ccc(C)cc2)cc1 | inactive | –
8 | CCC1Oc2ccc(NC(=O)Cc3ccccc3)cc2CN(Cc2ccc(OC)cc2)C1=O (stereo not given) | inconclusive: 20 µM [inhibitor, single point] | –
9 | Cc1ccc(S(=O)(=O)N2CCOC23CCN(C(=O)C(=O)NCCC(C)C)CC3)cc1 | inconclusive: 70.8 µM [inhibitor, partial curve, poor fit] | –
10 | Cc1ccc(Cl)cc1N1CC(O)=C(c2nc3ccccc3[nH]2)C1=N | inactive | –
11 | COc1cccc(-c2nnc(NC(=O)C3CCCCC3)o2)c1 | inactive | –
12 | OC1CCCN(Cc2ccc3ccc4cccc5ccc2c3c45)C1 (stereo not given) | inconclusive: 50.1 µM [inhibitor, partial curve, poor fit] | –
13 | COC(=O)C1=C(C)N(Cc2ccc(C(F)(F)F)cc2)C(=NCc2ccc3c(c2)OCO3)NC1c1ccccc1 (stereo not given) | inconclusive: 44.7 µM [inhibitor, partial curve, poor fit] | –
14 | Cc1cc(Br)cc(C)c1OC(C)C(=O)O (stereo not given) | – | inconclusive: -34.6% [inhibitor]
15 | Cc1nc2ccccc2c(=O)n1NC(=O)Nc1ccccc1 | inconclusive: 126 µM [inhibitor, partial curve, poor fit] | –
16 | CC(=O)Nc1ccc2c(c1)Cc1cc(N3C(=O)C=CC3=O)ccc1-2 | inactive | –
17 | O=C(Nc1cccc(Cl)c1)C1CCCN(c2nn3cc(-c4ccc(F)cc4)nc3s2)C1 (stereo not given) | inconclusive: 112 µM [inhibitor, partial curve, poor fit] | –
18 | CCOC(=O)c1ccc2c(c1)nc(SCC(=O)c1cc3ccccc3o1)n2CC | inconclusive: 79.4 µM [inhibitor, single point] | –
19 | Cc1cc(C)nc(NC=C2C(=O)OC(C)(C)OC2=O)n1 | inconclusive: 112 µM [inhibitor, single point] | –
20 | COc1ccc(CN(C)CCCn2cnc3c(SC)ncnc32)cc1OC | inconclusive: 100 µM [inhibitor, single point] | –

Exported as labelled records: two of the compounds above
Cc1cc(C)nc(NC=C2C(=O)OC(C)(C)OC2=O)n1
  Potency: inconclusive: 112 µM [inhibitor, single point]
COc1ccc(CN(C)CCCn2cnc3c(SC)ncnc32)cc1OC
  Potency: inconclusive: 100 µM [inhibitor, single point]

(next part)

Row | SMILES | Potency | activity change, negative = inhibition
21 | CC1=C(C(=O)OCc2ccccc2)C(c2ccc3ccccc3c2)NC(=O)N1CCCCCC(=O)O (stereo not given) | inconclusive: 89.1 µM [inhibitor, single point] | –
22 | Cc1ccc(S(=O)(=O)c2cn(CC(=O)Nc3cccc(Cl)c3)c3ccccc3c2=O)cc1 | inconclusive: 20 µM [inhibitor, partial curve, poor fit] | –
23 | O=c1[nH]c2ccccc2cc1-c1nnn(-c2ccc(F)cc2)n1 | inconclusive: 89.1 µM [inhibitor, single point] | –
24 | COC(=O)C1=C(C)N(Cc2cccc(C(F)(F)F)c2)C(=NCc2ccc(OC)cc2)NC1c1ccc(Cl)cc1 (stereo not given) | inconclusive: 50.1 µM [inhibitor, partial curve, poor fit] | –
25 | CCc1ccc2c(c1)C(c1ccc([N+](=O)[O-])cc1)=NNC(c1ccc(F)cc1)=N2 | inactive | –
26 | COc1ccc(C(=O)Nc2nc(-c3cccs3)cs2)cc1 | inconclusive: 35.5 µM [inhibitor, partial curve, poor fit] | –
27 | Cc1ccc(C)c(NC(=O)Cn2nc(C)c3nn(-c4ccc(Cl)cc4)c(C)c3c2=O)c1 | inconclusive: 141 µM [inhibitor, partial curve, poor fit] | –
28 | COc1ccc(Cn2c(C3CCN(C(=O)c4ccc(F)c(F)c4)CC3)n[nH]c2=O)cc1 | inconclusive: 50.1 µM [inhibitor, partial curve, poor fit] | –
29 | COc1ccc(N2CCN(c3ccc(-c4nc(-c5ccccc5)no4)cc3[N+](=O)[O-])CC2)cc1 | inconclusive: 39.8 µM [inhibitor, full curve, poor fit] | –
30 | CCCCN(C(=O)c1cc(CC)c(C)s1)c1c(N)n(CCC)c(=O)[nH]c1=O | inconclusive: 31.6 µM [inhibitor, single point] | –
31 | CCn1c2ccccc2c2cc(CN3CCN(Cc4cc(OC)c(O)c(OC)c4)CC3)ccc21 | inconclusive: 56.2 µM [inhibitor, partial curve, poor fit] | –
32 | Cc1cc(C)c(OC(=O)c2cnc(C)cn2)c(C)c1 | inconclusive: 100 µM [inhibitor, single point] | –
33 | Cc1[nH]c2ccc(C(=O)N(Cc3ccc(F)cc3)C3CC3)cc2c1C | inconclusive: 50.1 µM [inhibitor, partial curve, poor fit] | –
34 | Cc1cc(C(=O)NC(C)c2ccc(F)cc2F)c2cnn(C(C)C)c2n1 (stereo not given) | inconclusive: 79.4 µM [inhibitor, single point] | –
35 | Cn1nnc(NC(=S)NC(=O)c2cc(Cl)ccc2Cl)n1 | inconclusive: 7.94 µM [inhibitor, partial curve, poor fit] | –
36 | CCCCc1ccc(NC(=S)NCC2CCCO2)cc1 (stereo not given) | inconclusive: 44.7 µM [inhibitor, partial curve, poor fit] | –
37 | CCOc1ccccc1NC(=O)CCCc1nc(-c2ccccc2Cl)no1 | inactive | –
38 | COc1ccc(C2C3=C(CCCC3=O)Nc3c(C#N)cnn32)c(OC)c1 (stereo not given) | inactive | –
39 | Cc1cccc(NC(=O)CNC(=O)Cn2cc(C(F)(F)F)cc(Cl)c2=O)c1C | inconclusive: 50.1 µM [inhibitor, partial curve, poor fit] | –
40 | CC(C)c1ccc(S(=O)(=O)Nc2ccc(SC(F)F)cc2)cc1 | inconclusive: 50.1 µM [inhibitor, partial curve, poor fit] | –
